Reference: US20100233802A1
These are yes or no findings as the source states them, for the method shown. Some entries that bind do so weakly or less than the wild type.

Target: SNAP-25 peptide comprising amino acids 134-197 of SEQ ID NO: 5 (human)
Assay: SPR, normalized curves

B1: α-SNAP-25 monoclonal antibody 2C9B10 (antibody, V domains shown)
VH: QVKLQESGAELVKPGASVKISCKASGYTFTDHSIHWVKQKPGQGLEWIGYLFPGNGNFEYNEKFKGKATLTADKSSSTAYMHLNSLTSEDSAVYFCKKMDYWGQGTTVTVSS
VL: DIQMTQSPASLSASVGETVTITCRTTENIYSYFVWSQQRQGKSPQLRVYNAKSLAEGVPSSFNVSVSGTQFSLKINSLQPEDFGTYHCQHHYGTPYTFGGGTRLEIRR
B1 was tested, and the binding was “binds”.
